From paper PMC12632923

Amino acid sequences for entries named in this document (tags omitted). A change or cut given only in a name is not applied to a line headed by its entry.
UniProt Q9FJF4: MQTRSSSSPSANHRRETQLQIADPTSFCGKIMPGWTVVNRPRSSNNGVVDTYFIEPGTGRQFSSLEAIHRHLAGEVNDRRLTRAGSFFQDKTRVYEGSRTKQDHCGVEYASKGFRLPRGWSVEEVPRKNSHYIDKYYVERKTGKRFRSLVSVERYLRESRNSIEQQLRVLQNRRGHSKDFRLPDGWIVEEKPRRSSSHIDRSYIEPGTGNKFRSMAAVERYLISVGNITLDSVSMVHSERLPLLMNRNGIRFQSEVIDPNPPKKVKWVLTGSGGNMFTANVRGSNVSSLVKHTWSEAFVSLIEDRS

Biological target: T1, … DNA …ON 3 (IDM3) (Arabidopsis thaliana) (UniProt Q9SYQ0)
T1 sequence: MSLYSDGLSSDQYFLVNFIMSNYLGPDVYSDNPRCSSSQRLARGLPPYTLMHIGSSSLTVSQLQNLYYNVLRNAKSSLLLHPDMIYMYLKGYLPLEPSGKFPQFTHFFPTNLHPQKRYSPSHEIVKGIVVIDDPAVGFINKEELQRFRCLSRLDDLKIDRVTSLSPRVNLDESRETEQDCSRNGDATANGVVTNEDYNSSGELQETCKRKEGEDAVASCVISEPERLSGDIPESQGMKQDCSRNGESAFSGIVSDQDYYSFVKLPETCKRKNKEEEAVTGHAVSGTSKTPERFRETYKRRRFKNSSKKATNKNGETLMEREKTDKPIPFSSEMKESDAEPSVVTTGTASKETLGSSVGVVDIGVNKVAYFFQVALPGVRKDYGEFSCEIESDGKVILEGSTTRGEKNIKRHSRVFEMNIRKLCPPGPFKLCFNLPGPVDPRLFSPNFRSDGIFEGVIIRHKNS
Experiment: split reporter; BiFC; first protein listed tagged with nYFP, second with cYFP; YFP fluorescence imaged and quantified

binding: binds
Substance: MBD7 StkyC domain (from UniProt Q9FJF4) (domain or fragment)

These are yes or no findings as the source states them, for the method shown. In cells and extracts the contact can be indirect. Binding calls can cover weak binding; strength is not graded here.
